At least one structure is not confirmed: it was looked up by name or label, or the drawing left a doubt.
Key:
SriC12 = assay: Substrate testing with lyophilised material containing SriC12 (Example 5, method of Example 4A); format: biochemical, Streptomyces rimosus NRRL 2234; conditions: 0.1 mg/ml substrate
Protocol: (§1) Lyophilised material of recombinant P450, ferredoxin and ferredoxin reductase proteins was made as described in Example 3 and reconstituted in high purity water to the original volume. Biocatalysis was performed shaking at 27° C. in the following conditions: 100 mM potassium phosphate pH 8.0, 5 mM MgCl2 (both present in the reconstituted enzyme preparation) and 0.1 mg/ml substrate compound such as carbamazepine, bosentan, diclofenac, meloxicam, tivantinib or ambroxide.
(§2) Concentrations of P450, ferredoxin and ferredoxin reductase were as extracted (Example 3). Reactions were initiated by addition of 10× stock of cofactor mixture (50 mM G6P, 10 mM NADP, 10 UN/ml G6PDH) to provide a final volume of e.g., 10 μL to 90 μL for 100 μL total reaction volumes. After 16-20 hours, reactions were extracted with an equal volume of acetonitrile, centrifuged to remove precipitated proteins and conversion assessed by UPLC-MS analysis.
(§3) Other cytochrome P450 enzymes were expressed as described above, and their activities tested against the same substrates as P450SeuC10 using the methods described in Example 4. […]

SriC22 = assay: Substrate testing with lyophilised material containing SriC22 (Example 5, method of Example 4A); format: biochemical, Streptomyces rimosus NRRL 2234; conditions: 0.1 mg/ml substrate
Protocol: as §1, §2, §3

SriC20 = assay: Substrate testing with lyophilised material containing SriC20 (Example 5, method of Example 4A); format: biochemical, Streptomyces rimosus NRRL 2234; conditions: 0.1 mg/ml substrate
Protocol: as §1, §2, §3

P450AluC09 = assay: Substrate testing with lyophilised material containing P450AluC09 (Example 5, method of Example 4A); format: biochemical, Amycolatopsis lurida NRRL 2430; conditions: AluC09, lyophilised material, 0.1 mg/ml substrate
Protocol: as §1, §2, §3

P450SeuC10 = assay: Oxidase activity/spectrum testing with lyophilised material containing P450SeuC10, ferredoxinSeuF08 and ferredoxin reductaseSCF15A (Example 4A); format: biochemical, Streptomyces eurythermus NRRL 2539; conditions: SeuC10, lyophilised material, 0.1 mg/ml substrate, 27° C., 16-20 hours, pH 8.0, UPLC-MS
Protocol: Suspended cell pellets were provided as described in Example 2, containing recombinant P450, ferredoxin and ferredoxin reductase in 100 mM potassium phosphate buffer pH 8.0, 5 mM MgCl2, 5 mM TCEP, and 1 mM PMSF in a ratio of 3.0 ml of buffer per 1 g of cells. Lysed cells were produced by high pressure disruption using three cycles of 30 kpsi. Lysed material was centrifuged at 38,000×g for 40 minutes (4° C.) and the supernatant was sterilized by passing through a 0.2 micron filter to provide the cell-free enzyme preparation containing recombinant P450, ferredoxin and ferredoxin reductase.
as §1
Concentrations of P450, ferredoxin and ferredoxin reductase were as extracted (Example 3). […] After 16-20 hours, reactions were extracted with an equal volume of acetonitrile, centrifuged to remove precipitated proteins and conversion assessed by UPLC-MS analysis. […]

Row | Structure (SMILES) | Overall % conversion to oxidised products (SriC12) [%] | Overall % conversion to oxidised products (SriC22) [%] | Overall % conversion to oxidised products (SriC20) [%] | Overall % conversion to oxidised products (P450AluC09) [%] | Overall % conversion to oxidised products (P450SeuC10) [%]
1 | Cc1cnc(NC(=O)C2=C(O)c3ccccc3S(=O)(=O)N2C)s1 [Meloxicam] | 73 | 0 | 0 | 25.1 | 31.8
2 | O=C1NC(=O)[C@@H](c2cn3c4c(cccc24)CCC3)[C@@H]1c1c[nH]c2ccccc12 [Tivantinib] | 27.6 | 9.6 | 2.2 | 72 | 86.9
